# Data reported in PubChem BioAssay AID504467 (National Center for Advancing Translational Sciences (NCATS), 2011).
# The campaign covered roughly 330,000 compounds. About 7,700 (2.3%) were called active. This list was built around the results that the source calls inconclusive (neither active nor inactive); the mix of calls is not that of the screen. Calls come from the whole dose curve; as a rule, active = well fitted inhibition curve with a large enough effect; inconclusive = small, poorly fitted or top-dose-only effect, or effect the other way; inactive = flat fitted curve, though single readings scatter. A potency beside an inconclusive call is a rough fit, not a confirmed value.
# Assay: qHTS screen for small molecules that inhibit ELG1-dependent DNA repair in human embryonic kidney (HEK293T) cells expressing luciferase-tagged ELG1; note: nearly all actives have a fitted effect of over 55% in size
# Conditions: HEK293T ELG1-luciferase reporter, luminescence, 16 h, DNA damage induced by 5-fluorouridine; activity change, negative = inhibition: at 46.1 µM (top of the series)
# In short: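 Luminescence from the luciferase reporter, measured 30 min after ONE-Glo reagent at room temperature, was the read-out. Beforehand, 2,000 cells per well were exposed for 16 hr at 37 °C to 5-fluorouridine together with compound or vehicle.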
# % is set by controls: 0 for no effect and ±100 for the full control effect; potency is the fitted concentration of half-maximal effect.
Structure (SMILES),"activity change, negative = inhibition",Potency
CCCC(=O)NNC(=O)CCC(=O)Nc1ccccc1Cl,inactive: -4.35%,–
COCCNc1nnnc2c1sc1nc(N3CCOCC3)c3c(c12)CCCC3,–,"inconclusive: 18.3 µM [inhibitor, partial curve]"
Cc1ccc(CSc2nnc(-c3cccc(S(=O)(=O)N4CCOCC4)c3)n2C2CCCC2)cc1,–,"inconclusive: 25.9 µM [inhibitor, partial curve, poor fit]"
COc1cc2c(cc1NC(=O)CSc1ccccc1)oc1ccccc12,–,"inconclusive: 18.4 µM [activator, partial curve, poor fit]"
O=C(Oc1ccccc1)c1ccc2nsnc2c1,–,"inconclusive: 18.4 µM [activator, single point]"
CC(C)=CC(=O)Nc1nnc(C(C)C)s1,–,"inconclusive: 20.6 µM [activator, partial curve]"
COCCN(C(=O)c1snc(C(N)=O)c1N)C(C(=O)NC1CCCCC1)c1ccc(N(C)C)cc1 (stereo unspecified),inactive: -12.1%,–
COc1ccc(CCNC(=O)CSc2nnc(CNc3ccc(Cl)cc3)o2)cc1OC,–,"inconclusive: 18.4 µM [inhibitor, partial curve, poor fit]"
CC(C)(C)c1ccc(C(=O)N/N=C/c2ccccn2)cc1,–,"inconclusive: 25.9 µM [activator, single point]"
O=C(CS(=O)(=O)c1ccccc1)Nc1nnc(-c2cccs2)o1,inactive: 25.7%,–
CC(=O)Nc1nnc(CSCc2ccccc2F)s1,–,"inconclusive: 8.2 µM [activator, partial curve]"
CCc1ccc(CN(C)C(=O)c2cc(COc3c(F)cccc3F)on2)cc1,inactive: 10.6%,–
Cc1ccc2nc(N3CCN(C(=O)c4ccco4)CC3)c3nncn3c2c1,–,"inconclusive: 9.2 µM [activator, partial curve]"
COc1ccc(C2=NS(=O)(=O)N(C)C(C(=O)NC3CCCC3)=C2)cc1OC,inactive: -18.5%,–
O=C(OCC(=O)N1CCN(c2ccccc2)CC1)c1cc(Br)ccc1Cl,–,"inconclusive: 18.3 µM [inhibitor, single point]"
CCOc1ccc(CN(C)C(C)C(=O)Nc2ccc([N+](=O)[O-])cc2Cl)cc1OC (stereo unspecified),–,active: 14.6 µM
Cc1ccc(-n2nc3ccc(NC(=O)/C=C/c4ccco4)cc3n2)cc1,–,"inconclusive: 18.4 µM [activator, partial curve]"
CC(CC(=O)Nc1cc(C(F)(F)F)ccc1Cl)c1ccccc1 (stereo unspecified),inactive: -11.4%,–
COCCN(C(=O)Cc1cccs1)C(C(=O)NCc1ccc(OC)cc1)c1ccc(C)cc1 (stereo unspecified),–,"inconclusive: 23.1 µM [inhibitor, single point]"
CCCn1c(SC(C)C(=O)NCC2CCCO2)nc2sc3c(c2c1=O)CCC3 (stereo unspecified),inactive: -18.5%,–
CC(C)(C)c1nnc2sc(SCC(=O)c3ccc4c(c3)OCCO4)nn2c1=O,–,"inconclusive: 20.6 µM [activator, single point]"
Cc1ccc(NC(=O)c2cc(-c3cccs3)on2)cc1C,–,"inconclusive: 25.9 µM [activator, single point]"
CNC(=S)Nc1ccc([N+](=O)[O-])c(C)c1,inactive: 9.18%,–
CCCc1nc2nc(C)c(NS(=O)(=O)c3ccc([N+](=O)[O-])cc3)c(=O)n2[nH]1,inactive: -0.592%,–

Structure (SMILES),"activity change, negative = inhibition",Potency
CCN(CC)C1CCN(C(=O)c2cc(COc3ccc(F)cc3Cl)on2)C1 (stereo unspecified),–,"inconclusive: 16.4 µM [activator, partial curve, poor fit]"
Cc1ccc(N2CC(O)(c3cccs3)[N+]3=C2CCCC3)cc1 (stereo unspecified),–,"inconclusive: 0.0046 µM [inhibitor, full curve, poor fit]"
O=C(COC(=O)Cc1ccc(Cl)cc1)Nc1cc(S(=O)(=O)N2CCOCC2)ccc1N1CCCC1,inactive: -3.69%,–
C=CCN1C(=O)c2ccccc2Sc2ccc(C(=O)N3CCN(C)CC3)cc21,–,"inconclusive: 0.651 µM [activator, single point]"
Cc1ccc(-c2nc3ccccc3[nH]2)cc1N,–,"inconclusive: 1.84 µM [activator, full curve]"
Cc1ccccc1OCC(=O)OC(C)C(=O)NC1CCCC1 (stereo unspecified),inactive: 9.04%,–
Cc1cc(N)n(-c2ccc3ccccc3c2)n1,–,"inconclusive: 20.6 µM [activator, partial curve]"
COc1ccc(C(=O)N2CCC(n3nccc3NC(=O)C3CC3)CC2)c(OC)c1OC,–,"inconclusive: 18.3 µM [activator, single point]"
CCOC(=O)c1c(OCCO)noc1N,inactive: -2.44%,–
C[C@@H](NC(=O)[C@@H]1Cc2ccccc2CN1)C(=O)Nc1ccc2c(c1)OCO2,–,"inconclusive: 6.51 µM [activator, partial curve, poor fit]"
CN(CC(=O)Nc1ccc(F)c(F)c1F)c1ncnc2sccc12,–,"inconclusive: 32.6 µM [inhibitor, single point]"
O=C(c1ccc2ccccc2c1)N1CCc2ccccc21,–,"inconclusive: 23.1 µM [activator, partial curve]"
Cc1cc(C)cc(NC(=O)CN(C)S(=O)(=O)c2cccc3nsnc23)c1,–,"inconclusive: 29.1 µM [inhibitor, single point]"
COc1c(C(=O)NNC(=O)c2ccccc2Cl)csc1Br,–,"inconclusive: 18.3 µM [activator, partial curve]"
C/C(=N\N1C(=O)c2ccccc2NC1c1ccco1)c1ccccc1O (stereo unspecified),–,"inconclusive: 2.59 µM [activator, partial curve]"
Cc1ccc(S(=O)(=O)N2CCCCC2)cc1NC(=S)NC(=O)c1ccco1,–,"inconclusive: 20.6 µM [inhibitor, single point]"
Cc1ccc(C(=O)Nc2ccc3[nH]c(=O)[nH]c3c2)c(C)c1,–,"inconclusive: 29.1 µM [activator, single point]"
Cc1ccc(S(=O)(=O)Nc2cccc(C(=O)NCc3ccc(S(N)(=O)=O)cc3)c2)cc1,inactive: -21.2%,–
COc1cc(S(=O)(=O)NCc2ccncc2)ccc1Br,–,"inconclusive: 5.17 µM [inhibitor, partial curve]"
COc1ccc(/C=C2\Oc3ccccc3C2=O)cc1,–,"inconclusive: 1.83 µM [activator, partial curve]"
Oc1[nH]c2ccccc2c1C=Nc1ccccc1,–,"inconclusive: 7.3 µM [activator, partial curve]"
Cc1cc(C)n(-c2nc3ccccc3c(=O)n2OCC(N)=O)n1,inactive: 13.5%,–
Cc1cccc(Nc2nc(N)nc(CCl)n2)c1,–,"inconclusive: 29.1 µM [inhibitor, single point]"
C#Cc1cccc(NC(=O)c2ccc3c(c2)C(=O)N(Cc2cccnc2)C3=O)c1,inactive: 17.5%,–

Structure (SMILES),"activity change, negative = inhibition",Potency
O=C(CSc1nnc(NC(=O)c2ccccc2)s1)NCC1CCCO1 (stereo unspecified),–,"inconclusive: 9.2 µM [activator, partial curve]"
O=C(CC(C(=O)N1CCc2ccccc21)n1ccnc1)NCc1cccnc1 (stereo unspecified),–,"inconclusive: 20.6 µM [inhibitor, single point]"
CC(C)(Oc1ccc(Cl)cc1)C(=O)OCC(=O)N1CCCC1,–,"inconclusive: 29.1 µM [inhibitor, single point]"
O=C(C1CC1)N1CCN(c2ccnc3cc(Cl)ccc23)CC1,–,"inconclusive: 13 µM [inhibitor, partial curve]"
COc1ccc(OC)c(C(=O)c2ccc(C(=O)Nc3ccccc3)cc2)c1,inactive: -6.16%,–
COc1ccc(NC(=O)CSc2ccc3ccccc3c2)cc1S(=O)(=O)N1CCCCC1,–,"inconclusive: 10.3 µM [inhibitor, partial curve, poor fit]"
Cc1cc(-c2nc(C)c(C(=O)NN)s2)no1,–,"inconclusive: 29.1 µM [inhibitor, single point]"
CCc1ccc(-c2ccc(C(=O)O)c(C)n2)cc1,–,"inconclusive: 16.4 µM [activator, single point]"
CCOC(=O)c1cnc(=O)[nH]c1C,inactive: 0.621%,–
CC(C)[N+]1=C2C=CC=CC=C2SC12C([N+](=O)[O-])=CC(=[N+]([O-])[O-])C=C2[N+](=O)[O-] (stereo unspecified),–,"inconclusive: 25.9 µM [activator, single point]"
O=C(N=Nc1c(O)n(C2OC(=O)c3ccccc32)c2ccccc12)c1ccc(O)cc1 (stereo unspecified),–,"inconclusive: 18.4 µM [activator, single point]"
O=C(N/N=C/c1cc(Br)ccc1O)c1cccc(N2CCCC2=O)c1,–,"inconclusive: 2.59 µM [inhibitor, partial curve, poor fit]"
C=CCn1c(=O)c(C(=O)Nc2cccnc2)c(O)c2ccccc21,–,"inconclusive: 25.9 µM [activator, single point]"
O=[N+]([O-])c1cccc(N(CC2CO2)S(=O)(=O)c2ccccc2)c1 (stereo unspecified),inactive: 1.43%,–
Cc1c(C)c2ccc(O[C@@H]3O[C@H](CO)[C@H](O)[C@H](O)[C@H]3O)cc2oc1=O,inactive: 16.6%,–
Cc1ccc2c(CN(C)Cc3ccc(Cl)cc3)cc(=O)oc2c1,inactive: 5.93%,–
CCOC(=O)c1sc(-c2ccc(C)cc2)c(C#N)c1C,–,"inconclusive: 16.4 µM [activator, single point]"
COC(=O)c1c(C)cc(C)n2c1nc1ccccc12,inactive: -1.42%,–
Cn1c(/C(C#N)=C/Nc2ccccn2)nc2ccccc21,inactive: -14.6%,–
COc1ccc(Nc2nc(-c3cccc([N+](=O)[O-])c3)nc3ccccc23)c(OC)c1,–,"inconclusive: 5.17 µM [inhibitor, full curve, poor fit]"
COc1cc(/C=C/C(=O)Nc2ccc(C)cc2)cc(OC)c1OC,–,"inconclusive: 29.1 µM [inhibitor, single point]"
Cc1noc(C)c1CSc1ccccc1C(=O)N(C)CC(=O)Nc1cccc(F)c1,inactive: 4.55%,–
O=C(Nc1ccc2ccccc2c1)c1cccnc1,–,"inconclusive: 8.2 µM [activator, partial curve]"

# Random excerpt: three entries already listed
Structure (SMILES),"activity change, negative = inhibition",Potency
Cc1cc(-c2nc(C)c(C(=O)NN)s2)no1,–,"inconclusive: 29.1 µM [inhibitor, single point]"
COc1cc(/C=C/C(=O)Nc2ccc(C)cc2)cc(OC)c1OC,–,"inconclusive: 29.1 µM [inhibitor, single point]"
O=C(CC(C(=O)N1CCc2ccccc21)n1ccnc1)NCc1cccnc1 (stereo unspecified),–,"inconclusive: 20.6 µM [inhibitor, single point]"
